# Small-molecule microarray binding calls

Targets (5′ to 3′):
T1: PreQ1 riboswitch RNA pseudoknot, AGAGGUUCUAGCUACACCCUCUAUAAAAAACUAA. From B. subtilis. About 24,000 compounds screened, about 170 hits.
T2: SAM-II riboswitch RNA pseudoknot, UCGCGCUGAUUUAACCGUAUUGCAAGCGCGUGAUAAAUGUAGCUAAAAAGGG. About 21,000 compounds screened, about 200 hits.
T3: TPP riboswitch RNA three-way junction, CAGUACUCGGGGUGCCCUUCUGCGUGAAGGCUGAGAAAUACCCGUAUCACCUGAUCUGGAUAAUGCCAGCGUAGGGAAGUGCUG. About 24,000 compounds screened, about 160 hits.

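Each compound is printed as two spots on a slide made to bind it covalently, so it has no test concentration; the read-out is fluorescence of the bound, labelled oligonucleotide. For the PreQ1, TPP and SAM-II riboswitches the laboratory earlier reported (doi:10.1038/s41467-019-09493-3) 1 µM RNA, 2 h, and a rule that included a mean Z-score above 3 (spot signal-to-noise against the whole library), a score well above that on a control array, and duplicate spots agreeing (coefficient of variation under 100). The data file gives only the calls; its cut-offs may differ, and compounds hitting several targets are kept. The calls come from the array alone, and fixing a compound to the slide can hide its binding.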 “active” means called a hit, “inactive” means screened and not called a hit. The compounds are a random part of those screened. A target missing from an entry has no call listed here.

For CC(C)c1ncc(CO)n1Cc1c(Cl)cccc1Cl the calls were T1: inactive; T2: inactive; T3: inactive.
For CN(Cc1ccc2nccnc2c1)C(=O)c1cn(CCN2CCNCC2)nn1 the calls were T1: inactive; T2: inactive; T3: inactive.
For CC(=O)c1cc(CN2CCC3(CC2)[C@H](O)C[C@@H]3OCCN(C)C)cs1 the calls were T1: inactive; T2: inactive; T3: inactive.
For CC(C)c1nc(CN(C)c2nc(CCN)nc3ccccc23)cs1 the calls were T1: inactive; T2: inactive; T3: inactive.
For OC1(CNCC2(c3cccc(F)c3)CCOCC2)CCNC1 (stereo not shown) the calls were T1: inactive; T2: inactive; T3: inactive.
For CCOC(=O)c1c(N)n(-c2cc(C)cc(C)c2)c2nc3ccccc3nc12 the calls were T1: inactive; T2: inactive; T3: inactive.
For O=c1ccc(-c2ccccc2)nn1CCNC(=O)[C@]12CNC[C@H]1CNC2 the calls were T1: inactive; T2: inactive; T3: inactive.
For Clc1cccc(C(NC2CCCC2)c2nnc(-c3ccccc3)o2)c1 (stereo not shown) the calls were T1: inactive; T2: inactive; T3: inactive.
For CC1CCc2nc(N)c(C#N)c(-c3ccc(F)cc3)c2C1 (stereo not shown) the calls were T1: inactive; T2: inactive; T3: inactive.
For COc1ccc(-c2ccc3c(N)c(C(=O)Nc4ccc(F)cc4)sc3n2)cc1OC the calls were T1: inactive; T2: inactive; T3: inactive.
For Cn1c(=O)n(C)c2cc(NC3=C(C(N)=O)S(=O)(=O)c4ccccc43)ccc21 the calls were T1: inactive; T3: inactive.
For CCN(CC)CCn1c(N)nc2ccccc21 the calls were T1: inactive; T2: inactive; T3: inactive.
For COCC1=C(C(=O)OC)C(c2ccc(Cl)cc2)C(C#N)=C(N)O1 (stereo not shown) the calls were T1: inactive; T2: inactive; T3: inactive.
For COc1ccc(-c2cc(C)cc3c2OC(CN)C3)c(C)c1 (stereo not shown) the calls were T1: inactive; T2: inactive; T3: inactive.
For C=CCNc1oc(-c2ccc(F)cc2)nc1S(=O)(=O)c1ccc(C)cc1 the calls were T1: inactive; T3: inactive.
For CCOC(=O)N1CCC(Nc2c(N3CCc4ccccc4C3)c(=O)c2=O)CC1 the calls were T1: inactive; T3: inactive.
For Cc1cccc2[nH]c(CCN3C(=O)NC4(CCNCC4)C3=O)nc12 the calls were T1: inactive; T2: inactive; T3: inactive.
For Cc1ccc(N2C(N)=C(C#N)C(c3cccnc3)C3=C2CC(C)(C)CC3=O)cc1 (stereo not shown) the calls were T1: inactive; T2: inactive; T3: inactive.
For CCOC(=O)Nc1ccc2c(c1)N(C(=O)CCN1CCN(CCO)CC1)c1ccccc1S2.Cl.Cl the calls were T1: inactive; T2: inactive; T3: inactive.
For Cc1cc(N2CCN(S(=O)(=O)c3ccc(F)cc3)CC2)nc(NC2CCCCC2)n1 the calls were T1: inactive; T3: inactive.
For COC(=O)c1ccc(N2CCN(C(=O)CC3COCCN3)CC2)cc1 (stereo not shown) the calls were T1: inactive; T2: inactive; T3: inactive.
For COc1ccc(C(=O)N2CC[C@@H](c3ccc4ccccc4c3)[C@H](O)C2)o1 the calls were T1: inactive; T2: inactive; T3: inactive.
For CC(C)CNc1cc(=O)n(C)c(=O)n1C the calls were T1: inactive; T2: inactive; T3: inactive.
For CCc1c(C)nc(N)nc1N1CCN(CCCO)CC1 the calls were T1: inactive; T2: inactive; T3: inactive.
For CCOC(=O)C1=C(C)OC(N)=C(C(=O)OC(C)C)C12C(=O)Nc1ccc(Br)cc12 (stereo not shown) the calls were T1: inactive; T2: inactive; T3: inactive.
For Cn1c(=O)c2c(nc3n2CC(c2ccc(Cl)cc2)=NN3CCO)n(C)c1=O the calls were T1: inactive; T2: inactive; T3: inactive.
For Cc1ccc2c(CNCC(C)c3ccccc3)c(C(=O)O)n(C)c2c1 (stereo not shown) the calls were T1: inactive; T3: inactive.
For CC(C)(C)c1cn2c3ccccc3nc2n1CCCNC1CCCCC1.Cl.Cl the calls were T1: inactive; T2: inactive; T3: inactive.
For CCC1(C)CC(CCN)(c2ccc(F)cc2)CCO1 (stereo not shown) the calls were T1: inactive; T2: inactive; T3: inactive.
For O=C(CC1CNCCO1)N1CCC(Oc2cccc(C(F)(F)F)c2)CC1 (stereo not shown) the calls were T1: inactive; T2: inactive; T3: inactive.
For CC(=O)Nc1ccc(C2C(C#N)=C(N)OC3=C2C(=O)CC(C)(C)C3)cc1 (stereo not shown) the calls were T1: inactive; T2: inactive; T3: inactive.
For COCC(C)NCC1(Cn2nc(C)cc2C)CC1 (stereo not shown) the calls were T1: inactive; T2: inactive; T3: inactive.
For CN1c2ccccc2C2=C(C(c3cccc(Cl)c3)C(C#N)=C(N)O2)S1(=O)=O (stereo not shown) the calls were T1: inactive; T3: inactive.
For CCCC1=C(C(=O)OCc2ccccc2)C2(C(=O)Nc3ccccc32)C(C(=O)OCC)=C(N)O1 (stereo not shown) the calls were T1: inactive; T2: inactive; T3: inactive.
For Nc1nnc(SCCCc2ccccc2)[nH]1 the calls were T1: inactive; T2: inactive; T3: inactive.
For Cc1ccc(C(=O)Nc2cccc(C(F)(F)F)c2)cc1-c1ccc2nc(NCCN3CCOCC3)ncc2c1 the calls were T1: inactive; T2: active; T3: inactive.
For Cc1ccccc1-c1c(C#N)c(N)nc2sc(C(=O)c3ccc(Br)cc3)c(N)c12 the calls were T1: inactive; T2: inactive; T3: inactive.
For CNc1oc(C=Cc2cc(OC)c(OC)c(OC)c2)nc1C#N the calls were T1: inactive; T3: inactive.
For OC[C@H]1O[C@@H](O[C@H]2[C@@H](O)[C@@](O)(CO)O[C@@H]2CO)[C@H](O)[C@@H](O)[C@@H]1O the calls were T1: inactive; T2: inactive; T3: inactive.
For COc1cccc(N2CCN(C(=O)c3oc4ccccc4c3N)CC2)c1 the calls were T1: inactive; T3: inactive.
For CCN(CC)c1ccc(CNc2ccc3c(c2)ncn3CC)cc1 the calls were T1: inactive; T2: inactive; T3: inactive.
For c1ccc(-c2nnc(-c3nc(NCCCN4CCC(N5CCCCC5)CC4)c4ccccc4n3)o2)cc1 the calls were T1: inactive; T2: inactive; T3: inactive.

The last 5 entries again:

{"compound": "CNc1oc(C=Cc2cc(OC)c(OC)c(OC)c2)nc1C#N", "T1": "inactive", "T3": "inactive"}
{"compound": "OC[C@H]1O[C@@H](O[C@H]2[C@@H](O)[C@@](O)(CO)O[C@@H]2CO)[C@H](O)[C@@H](O)[C@@H]1O", "T1": "inactive", "T2": "inactive", "T3": "inactive"}
{"compound": "COc1cccc(N2CCN(C(=O)c3oc4ccccc4c3N)CC2)c1", "T1": "inactive", "T3": "inactive"}
{"compound": "CCN(CC)c1ccc(CNc2ccc3c(c2)ncn3CC)cc1", "T1": "inactive", "T2": "inactive", "T3": "inactive"}
{"compound": "c1ccc(-c2nnc(-c3nc(NCCCN4CCC(N5CCCCC5)CC4)c4ccccc4n3)o2)cc1", "T1": "inactive", "T2": "inactive", "T3": "inactive"}

Data from the ROBIN nucleic acid binder screens, doi:10.1002/anie.202211358.